# From US9840623B2, “Detoxification method for obtaining a zinc containing pigment compound with no ecotoxicity” (Societe Nouvelle Des Couleurs Zinciques, priority 2009, dated 2017)
# Experiment: Anti-corrosion test in solvent-phase epoxy amine primer, salt fog ASTM B117
# Conditions: salt fog 600 hours
substance,measurement,setting,value
Zn3(PO4)2.0 to 4H2O [PZ],Degree of rusting NF-ISO 4828-3 T 30140-3,"epoxy amine primer 50 μm, polyurethane topcoat 100 μm",RI1
same,Complete plate general rating ASTM* 1654,"epoxy amine primer, 10 = 0% degradation, 0 = more than 75% degradation",6
same,Scribe corrosion ASTM* 1654,"epoxy amine primer, 10 = 0 mm at scribe, 0 = 16 mm and more",6
